Results as given in article PMC7869461.
No constants are given. Whether binding was seen depends on the method and setting. In cells and extracts the contact can be indirect. Some results given as binding are weak or reduced against the parent protein; the word gives no strength.

Amino acid sequences for entries named in this document (tags omitted).
UniProt Q92466: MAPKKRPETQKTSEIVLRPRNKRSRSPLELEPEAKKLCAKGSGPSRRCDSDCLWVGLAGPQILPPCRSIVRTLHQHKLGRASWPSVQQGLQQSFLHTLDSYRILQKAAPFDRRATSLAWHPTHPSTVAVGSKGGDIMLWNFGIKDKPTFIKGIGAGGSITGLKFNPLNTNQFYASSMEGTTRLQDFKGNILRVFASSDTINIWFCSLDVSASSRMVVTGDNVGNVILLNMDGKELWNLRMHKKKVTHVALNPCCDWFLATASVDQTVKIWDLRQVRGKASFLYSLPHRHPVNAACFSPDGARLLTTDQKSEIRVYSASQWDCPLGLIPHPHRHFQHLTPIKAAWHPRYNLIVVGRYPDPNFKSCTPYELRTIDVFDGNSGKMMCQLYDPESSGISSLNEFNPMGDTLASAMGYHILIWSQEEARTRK
UniProt Q9NZJ0: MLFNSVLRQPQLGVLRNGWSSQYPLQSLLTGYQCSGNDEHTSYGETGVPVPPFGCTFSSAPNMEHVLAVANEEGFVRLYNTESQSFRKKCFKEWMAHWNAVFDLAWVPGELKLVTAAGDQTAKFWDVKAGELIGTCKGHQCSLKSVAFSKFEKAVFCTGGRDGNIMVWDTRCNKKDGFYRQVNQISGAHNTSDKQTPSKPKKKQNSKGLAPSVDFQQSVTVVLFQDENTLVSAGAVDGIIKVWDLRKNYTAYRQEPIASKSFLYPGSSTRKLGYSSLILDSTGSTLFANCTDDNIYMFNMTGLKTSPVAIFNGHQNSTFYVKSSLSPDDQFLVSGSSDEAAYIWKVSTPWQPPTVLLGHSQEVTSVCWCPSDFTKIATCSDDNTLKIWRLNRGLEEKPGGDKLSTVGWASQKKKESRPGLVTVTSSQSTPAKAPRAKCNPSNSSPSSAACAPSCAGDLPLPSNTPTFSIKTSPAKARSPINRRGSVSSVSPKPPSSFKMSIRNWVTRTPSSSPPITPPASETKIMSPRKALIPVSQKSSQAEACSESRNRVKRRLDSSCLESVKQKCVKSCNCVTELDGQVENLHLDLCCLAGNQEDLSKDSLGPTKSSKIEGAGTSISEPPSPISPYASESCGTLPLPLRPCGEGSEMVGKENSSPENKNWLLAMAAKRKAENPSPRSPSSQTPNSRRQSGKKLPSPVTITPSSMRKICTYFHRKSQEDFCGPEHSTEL

Key:
[1] = target: DNA damage binding protein 2 (DDB2) (human (endogenous in HCT116)) (UniProt Q92466); assay: co-IP; endogenous proteins; HCT116 cells treated with MG132 (10 µg/mL) for 4 h; lysate in IP buffer (0.5% Nonidet P40, 50 mM Hepes pH 7.5, 150 mM NaCl, 1 mM EDTA); precipitated with NRS, anti-CDT2 or anti-DDB2 antibodies overnight at 4 °C, protein G beads; Western blot
[2] = target: CDT2 (human (endogenous in HCT116)) (UniProt Q9NZJ0); assay: as above

binding [2] | Substance | binding [1]
 | CDT2 (from UniProt Q9NZJ0 1-730) | binds
binds | DNA damage binding protein 2 (DDB2) (from UniProt Q92466 1-427) | 
